Test results: publication PMC9478483
No constants are given. Whether binding was seen depends on the method and setting. A result given as binding can be weak or reduced; the word gives no strength. For some assays here: Binding seen in cells or lysates may run through a third protein.

Sequences of proteins named here, by UniProt entry; tags and fusion partners are left off. A change or cut given only in a name is not applied to a line headed by its entry.
UniProt P05305: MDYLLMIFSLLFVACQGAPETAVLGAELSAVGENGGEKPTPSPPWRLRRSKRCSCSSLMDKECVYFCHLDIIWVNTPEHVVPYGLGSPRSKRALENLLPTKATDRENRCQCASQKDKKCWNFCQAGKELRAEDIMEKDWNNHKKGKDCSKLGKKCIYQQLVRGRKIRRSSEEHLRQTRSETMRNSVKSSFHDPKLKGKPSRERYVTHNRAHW

What was measured:
Endothelin-1 = Endothelin-1 (UniProt P05305); experiment: co-IP; mutual co-immunoprecipitation in HEK293T cells, western blot
GST-ET-1 = GST-ET-1 (UniProt P05305); experiment: pull-down; in vitro pull-down with purified recombinant proteins (GST-ET-1, UFL1 and DDRGK1); both purified

binding (Endothelin-1)	binding (GST-ET-1)	Substance
binds		UFL1 (from UniProt O94874-1 1-794)
	binds	UFL1 (purified recombinant) (from UniProt O94874-1 1-794)
